In PMC12431657, “Discovery and mechanistic insights of dibenzoylmethane as a broad spectrum inhibitor of coronavirus” (PLOS Pathogens, 2025):
Counter-ions that a name gives are not always drawn. Like-named read-outs stand apart in the source and are kept apart here. Hit rate of the full screen: of about 3,300 compounds, about 95 (3%) showed an effect of 50% or more. Some of the results follow.

Test system: HCoV-229E
Design: species or system Huh-7; HTS, protection from HCoV-229E induced cell death, luminescent cell viability (CellCounting-Lite 2.0), inhibition rate
Settings: 24 h post infection, 1 h compound pre-incubation, 10 µM, inhibitor

Compound	229E Inhibition rate [%]	229E Inhibition rate (229E Inhibition rate, 24 h) [%]
CC(=O)N[C@@H](CS)C(=O)O [Acetylcysteine]	39.5	
C[C@@H]1O[C@@H](O[C@H]2[C@H](OC(=O)[C@]34CCC(C)(C)C[C@H]3C3=CC[C@@H]5[C@@]6(C)C[C@H](O)[C@H](O[C@@H]7O[C@H](CO)[C@@H](O)[C@H](O)[C@H]7O)[C@@](C)(CO)[C@@H]6CC[C@@]5(C)[C@]3(C)C[C@H]4O)OC[C@H](O)[C@@H]2O)[C@H](O)[C@H](O)[C@H]1O[C@@H]1OC[C@@H](O)[C@H](O[C@@H]2OC[C@](O)(CO)[C@H]2O)[C@H]1O [Polygalacin D]	16.7	
COc1cc2oc(-c3ccccc3)cc(=O)c2c(O)c1OC [Mosloflavone]	24	
Cc1ccccc1C(=O)O [o-Toluic acid]	0	
CCCC(=O)OC(CC(=O)[O-])C[N+](C)(C)C (stereo not shown) [Butyrylcarnitine]	14	
C[C@H]1CC[C@]2(C(=O)O)CC[C@]3(C)C(=CC[C@@H]4[C@@]5(C)CC[C@H](O[C@@H]6OC[C@@H](O)[C@H](O)[C@H]6O[C@@H]6O[C@H](CO)[C@@H](O)[C@H](O)[C@H]6O)C(C)(C)[C@@H]5CC[C@]43C)[C@@H]2[C@]1(C)O [Ilexoside D]	9.2	
C=C1C[C@]2(O)O[C@@]3(CC2=C(C)C)[C@@H](C)CC[C@@H]13 [Isocurcumenol]	10.7	
O=c1cc(-c2ccccc2)oc2cc(O)c(O)c(O)c12 [Baicalein]	34.3	
COc1cc(C2Oc3cc([C@H]4Oc5cc(O)cc(O)c5C(=O)[C@@H]4O)ccc3OC2CO)ccc1O (stereo partly shown) [Silybin]	13	
OCCCO [1,3-Propanediol]	49	
CCCCCCCCCCCCCCOC(C)=O [Tetradecyl acetate]	20.4	
N[C@H](CCSSCC[C@@H](N)C(=O)O)C(=O)O (racemic) [DL-Homocystine]	13	
NC1CCSC1=O (racemic) [DL-Homocysteine thiolactone (hydrochloride)]	5.6	
CC(C)=CCOc1c2occc2cc2ccc(=O)oc12 [Imperatorin]	7.2	
CC(C)C(O)C(=O)O (stereo not shown) [2-Hydroxy-3-methylbutanoic acid]	20.4	
COc1cc(C[C@@H](CO[C@@H]2O[C@H](CO)[C@@H](O)[C@H](O)[C@H]2O)[C@H](CO[C@@H]2O[C@H](CO)[C@@H](O)[C@H](O)[C@H]2O)Cc2ccc(O)c(OC)c2)ccc1O [Secoisolariciresinol diglucoside]		8.8
C/C=C(\C)C(=O)O [Tiglic acid]	12.8	
O=C(OC[C@H]1O[C@@H](Oc2c(-c3ccc(O)c(O)c3)oc3cc(O)cc(O)c3c2=O)[C@H](O)[C@@H](O)[C@H]1O)c1cc(O)c(O)c(O)c1 [Quercetin 3-O-(6''-galloyl)-β-D-galactopyranoside]	14.1	
CC1=CC(=O)c2c(O)cccc2C1=O [Plumbagin]	5.1	
COc1ccc(CC(=O)O)cc1O [Isohomovanillic acid]	20.2	
COc1ccc(C[C@H](N)C(=O)N[C@H]2[C@@H](O)[C@H](n3cnc4c(N(C)C)ncnc43)O[C@@H]2CO)cc1 [Puromycin (dihydrochloride)]	8.9	
O=C(O[C@@H]1O[C@@H]2COC(=O)c3cc(O)c(O)c(O)c3-c3c(cc(O)c(O)c3O)C(=O)O[C@H]([C@H]1O)[C@@H]2O)c1cc(O)c(O)c(O)c1 [Corilagin]	10.8	
COc1ccc([C@@H]2CC(=O)c3c(O)cc(O[C@@H]4O[C@H](CO)[C@@H](O)[C@H](O)[C@H]4O)cc3O2)cc1O [Hesperetin 7-O-glucoside]	8	
O=CCc1ccccc1 [2-Phenylacetaldehyde]	18.7	
O=C(O)c1ccncc1 [Isonicotinic acid]	55	
CC(=O)O[C@H]([C@@H](O)C[C@@H](C)C1=C2C[C@H](O)[C@H]3[C@@]4(C)CCC(=O)C(C)(C)[C@@H]4CC[C@]3(C)[C@@]2(C)CC1)C(C)(C)O [Alisol A 24-acetate]	49.8	
O=C(O)c1cc(O)c2c(c1)[C@H]([C@H]1c3cccc(O)c3C(=O)c3c(O)cc(C(=O)O)cc31)c1cccc(O)c1C2=O [Sennidin B]	9	
O=C(O)Cc1cc(O)ccc1O[C@@H]1O[C@H](CO)[C@@H](O)[C@H](O)[C@H]1O [Phaseoloidin]	18.8	

Compound	229E Inhibition rate [%]	229E Inhibition rate (229E Inhibition rate, 24 h) [%]
O=c1ccn([C@@H]2O[C@H](CO)[C@@H](O)[C@H]2O)c(=O)[nH]1 [Uridine]	23.1	
O=C1OCc2ccccc21 [Phthalide]	13	
CC1=C[C@H]2c3c(O)cc(-c4cc5ccc(O)cc5o4)cc3O[C@@]3(c4ccc(O)cc4O)Oc4cc(O)ccc4[C@H](C1)[C@@H]23 [Mulberrofuran G]	6.6	
C[C@H](CC(=O)C[C@@H](C)[C@H]1C[C@H](O)[C@@]2(C)C3=C(C(=O)C[C@]12C)[C@@]1(C)CCC(=O)C(C)(C)[C@@H]1C[C@@H]3O)C(=O)O [Ganoderic acid A]	12.5	
N[C@H]1C(O)O[C@H](CO)[C@@H](O)[C@@H]1O (stereo partly shown) [Glucosamine]		8
C[C@@H]1CC[C@]2(C(=O)O[C@@H]3O[C@H](CO)[C@@H](O)[C@H](O)[C@H]3O)CC[C@]3(C)C(=CC[C@@H]4[C@@]5(C)C[C@@H](O)[C@H](O)[C@@](C)(CO)[C@@H]5CC[C@]43C)[C@@H]2[C@]1(C)O [Niga-ichigoside F1]	20.4	
N[C@H](C(=O)O)[C@@H]1CC(Cl)=NO1 [Acivicin (hydrochloride)]	0	
C[n+]1cccc(C(N)=O)c1 [TRIA-662]	14.4	
C/C(=C\CC[C@@H](C)[C@H]1CC[C@@]2(C)C3=C(CC[C@]12C)[C@@]1(C)CCC(=O)C(C)(C)[C@@H]1CC3=O)C(=O)O [Ganoderic acid DM]	10.7	
CC1(C)CC[C@]2(C(=O)O)CC[C@]3(C)C(=CC[C@@H]4[C@@]5(C)CC[C@H](O)C(C)(C)[C@@H]5CC[C@]43C)[C@@H]2C1 [Oleanolic Acid]	9.8	
CC1=C(/C=C/C(C)=C/C=C/C(C)=C/C=C/C=C(C)/C=C/C=C(\C)C=O)C(C)(C)CCC1 [β-Apo-8'-carotenal]	8.1	
C[C@@H]1O[C@@H](Oc2cc(O)c3c(=O)c(O)c(-c4ccc(O)cc4)oc3c2)[C@H](O)[C@H](O)[C@H]1O [Kaempferol-7-O-rhamnoside]	8.4	
O=c1c(-c2ccc(O)cc2)coc2cc(O)ccc12 [Daidzein]	0	
COc1cc(O)c2c(=O)cc(-c3ccc(O)c(OC)c3)oc2c1 [Velutin]	29.8	
CCCC(=O)c1c(O)c(CC2=C(O)C(C)(C)C(=O)C(C(C)=O)=C2O)c(O)c(Cc2c(O)c(CC3=C(O)C(C)(C)C(=O)C(C(C)=O)=C3O)c(O)c(C(=O)CCC)c2O)c1O [Dryocrassin ABBA]	49.1	
O=C(CO)[C@@H](O)[C@H](O)[C@H](O)COP(=O)(O)O [D-Fructose-6-phosphate (disodium) salt]	13	
Cc1ncc(CO)c(CN)c1O [Pyridoxylamine (dihydrochloride)]		23.1
C=C(C)[C@H](C)c1cc(/C=C/C(=O)c2ccc(O)cc2)c(OC)cc1O [Licochalcone E]	61.6	
CC1(C)CC[C@]2(C(=O)O[C@@H]3O[C@H](CO)[C@@H](O)[C@H](O)[C@H]3O)CC[C@]3(C)C(=CC[C@@H]4[C@@]5(C)CC[C@H](O[C@@H]6O[C@H](CO)[C@@H](O)[C@H](O[C@@H]7O[C@H](CO)[C@@H](O)[C@H](O)[C@H]7O)[C@H]6O[C@@H]6O[C@H](CO)[C@@H](O)[C@H](O)[C@H]6O)[C@@](C)(CO)[C@@H]5CC[C@]43C)[C@@H]2C1 [Araloside VII]	12.5	
CCCCCCCCCCCCCCCCCCCCCC(=O)O[C@H]1CC[C@@]2(C)C(=CC[C@H]3[C@@H]4CC[C@H]([C@H](C)CCCC(C)C)[C@@]4(C)CC[C@@H]32)C1 [Cholesteryl behenate]	11.6	
CC1(C)CC[C@]2(C(=O)O)CC[C@]3(C)C(=CC[C@@H]4[C@@]5(C)CC[C@@H](O)C(C)(C)[C@@H]5CC[C@]43C)[C@@H]2C1 [3-Epioleanolic acid]	2.7	
CC1=CC(=O)CC1 [3-Methyl-2-cyclopenten-1-one]	14.3	
C[C@H](CC[C@@]1(O)O[C@H]2C[C@H]3[C@@H]4CC=C5C[C@@H](O[C@@H]6O[C@H](CO)[C@@H](O[C@@H]7O[C@@H](C)[C@H](O)[C@@H](O)[C@H]7O)[C@H](O)[C@H]6O[C@@H]6O[C@@H](C)[C@H](O)[C@@H](O)[C@H]6O)CC[C@]5(C)[C@H]4CC[C@]3(C)[C@H]2[C@@H]1C)CO[C@@H]1O[C@H](CO)[C@@H](O)[C@H](O)[C@H]1O [Protodioscin]	7.5	
CCCCOC(=O)c1ccccc1C(=O)O [Monobutyl phthalate]	11.8	
Cc1nc(C)c(C)nc1C [Ligustrazine (hydrochloride)]		3.7
Cc1occc1SSc1ccoc1C [Bis(2-methyl-3-furyl)disulfide]	22.5	
O[C@H](c1ccccc1)[C@H](O)c1ccccc1 [(R,R)-(+)-Hydrobenzoin]	11.5	

Record cards, from the list above:
O=C(CO)[C@@H](O)[C@H](O)[C@H](O)COP(=O)(O)O [D-Fructose-6-phosphate (disodium) salt] is entered as 229E Inhibition rate [%]: 13
CC1=C(/C=C/C(C)=C/C=C/C(C)=C/C=C/C=C(C)/C=C/C=C(\C)C=O)C(C)(C)CCC1 [β-Apo-8'-carotenal] is entered as 229E Inhibition rate [%]: 8.1
N[C@H](C(=O)O)[C@@H]1CC(Cl)=NO1 [Acivicin (hydrochloride)] is entered as 229E Inhibition rate [%]: 0
